{"source": "PubChem BioAssay AID1259308 (NCATS, 2017)", "screen": "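Knock-downs that increase output of a recombinant reporter protein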 (primary screen)", "system": "human HEK293 embryonic kidney cells stably expressing firefly luciferase (HEK-CMV-Luc2-Hygro)", "reagents": "single siRNA against human genes, 0.8 pmol siRNA per well", "time to read-out": "72 h", "measurement": "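Luciferase light (ONE-Glo) measured on one replicate plate set and viability (CellTiter-Glo) on the other, scaled to a negative control siRNA, with robust z-scores and luciferase per cell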", "scale": "total luciferase, z-score: higher = more reporter protein produced", "active means": "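An siRNA counts as active if its total luciferase robust z-score exceeds 3; genes with two or more such siRNAs out of three were retested with fresh siRNAs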", "calls": "active = raised luciferase; inactive = no rise", "note": "Here is a random part of about 59,000 reagents tested. About 1,510 of them (2.6%) count as active. 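Calls use total luciferase alone and ignore viability, so some active siRNAs may act by altering cell number.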 The numbers tell different reagents against one gene apart. Not all columns of the deposit are shown."}
{"Target gene": "JPX (GeneID 554203)", "reagent no.": 1, "total luciferase, z-score": 1.54, "outcome": "inactive"}
{"Target gene": "JPX (GeneID 554203)", "reagent no.": 2, "total luciferase, z-score": -0.795, "outcome": "inactive"}
{"Target gene": "JPX (GeneID 554203)", "reagent no.": 3, "total luciferase, z-score": 0.783, "outcome": "inactive"}
{"Target gene": "LRP12 (GeneID 29967)", "reagent no.": 1, "total luciferase, z-score": 0.84, "outcome": "inactive"}
{"Target gene": "LRP12 (GeneID 29967)", "reagent no.": 2, "total luciferase, z-score": 2.19, "outcome": "inactive"}
{"Target gene": "LRP12 (GeneID 29967)", "reagent no.": 3, "total luciferase, z-score": 0.51, "outcome": "inactive"}
{"Target gene": "LTC4S (GeneID 4056)", "reagent no.": 1, "total luciferase, z-score": 1.64, "outcome": "inactive"}
{"Target gene": "LTC4S (GeneID 4056)", "reagent no.": 2, "total luciferase, z-score": 0.126, "outcome": "inactive"}
{"Target gene": "LTC4S (GeneID 4056)", "reagent no.": 3, "total luciferase, z-score": -0.511, "outcome": "inactive"}
{"Target gene": "PRR27 (GeneID 401137)", "reagent no.": 1, "total luciferase, z-score": 0.783, "outcome": "inactive"}
{"Target gene": "PRR27 (GeneID 401137)", "reagent no.": 2, "total luciferase, z-score": -0.475, "outcome": "inactive"}
{"Target gene": "PRR27 (GeneID 401137)", "reagent no.": 3, "total luciferase, z-score": -1.4, "outcome": "inactive"}
{"Target gene": "PID1 (GeneID 55022)", "reagent no.": 1, "total luciferase, z-score": -1.27, "outcome": "inactive"}
{"Target gene": "PID1 (GeneID 55022)", "reagent no.": 2, "total luciferase, z-score": -0.145, "outcome": "inactive"}
{"Target gene": "PID1 (GeneID 55022)", "reagent no.": 3, "total luciferase, z-score": 0.933, "outcome": "inactive"}
{"Target gene": "RCBTB2 (GeneID 1102)", "reagent no.": 1, "total luciferase, z-score": 0.0232, "outcome": "inactive"}
{"Target gene": "RCBTB2 (GeneID 1102)", "reagent no.": 2, "total luciferase, z-score": -0.573, "outcome": "inactive"}
{"Target gene": "RCBTB2 (GeneID 1102)", "reagent no.": 3, "total luciferase, z-score": 0.21, "outcome": "inactive"}
{"Target gene": "SYNM (GeneID 23336)", "reagent no.": 1, "total luciferase, z-score": 0.992, "outcome": "inactive"}
{"Target gene": "SYNM (GeneID 23336)", "reagent no.": 2, "total luciferase, z-score": 0.241, "outcome": "inactive"}
{"Target gene": "SYNM (GeneID 23336)", "reagent no.": 3, "total luciferase, z-score": -0.335, "outcome": "inactive"}
{"Target gene": "RCHY1 (GeneID 25898)", "reagent no.": 1, "total luciferase, z-score": -1.02, "outcome": "inactive"}
{"Target gene": "RCHY1 (GeneID 25898)", "reagent no.": 2, "total luciferase, z-score": 2.18, "outcome": "inactive"}
{"Target gene": "RCHY1 (GeneID 25898)", "reagent no.": 3, "total luciferase, z-score": -0.141, "outcome": "inactive"}
{"Target gene": "PROP1 (GeneID 5626)", "reagent no.": 1, "total luciferase, z-score": 3.69, "outcome": "active"}
{"Target gene": "PROP1 (GeneID 5626)", "reagent no.": 2, "total luciferase, z-score": -1.15, "outcome": "inactive"}
{"Target gene": "PROP1 (GeneID 5626)", "reagent no.": 3, "total luciferase, z-score": -0.718, "outcome": "inactive"}

Sorted by “total luciferase, z-score” (high to low): 4 of the entries above
{"Target gene": "PRR27 (GeneID 401137)", "reagent no.": 1, "total luciferase, z-score": 0.783, "outcome": "inactive"}
{"Target gene": "LTC4S (GeneID 4056)", "reagent no.": 2, "total luciferase, z-score": 0.126, "outcome": "inactive"}
{"Target gene": "PRR27 (GeneID 401137)", "reagent no.": 2, "total luciferase, z-score": -0.475, "outcome": "inactive"}
{"Target gene": "LTC4S (GeneID 4056)", "reagent no.": 3, "total luciferase, z-score": -0.511, "outcome": "inactive"}

Continued.
{"Target gene": "HEXIM1 (GeneID 10614)", "reagent no.": 1, "total luciferase, z-score": -0.289, "outcome": "inactive"}
{"Target gene": "HEXIM1 (GeneID 10614)", "reagent no.": 2, "total luciferase, z-score": 3.38, "outcome": "active"}
{"Target gene": "HEXIM1 (GeneID 10614)", "reagent no.": 3, "total luciferase, z-score": 0.851, "outcome": "inactive"}
{"Target gene": "EHD1 (GeneID 10938)", "reagent no.": 1, "total luciferase, z-score": 0.0486, "outcome": "inactive"}
{"Target gene": "EHD1 (GeneID 10938)", "reagent no.": 2, "total luciferase, z-score": -0.696, "outcome": "inactive"}
{"Target gene": "EHD1 (GeneID 10938)", "reagent no.": 3, "total luciferase, z-score": 0.0853, "outcome": "inactive"}
{"Target gene": "PGPEP1L (GeneID 145814)", "reagent no.": 1, "total luciferase, z-score": 0.328, "outcome": "inactive"}
{"Target gene": "PGPEP1L (GeneID 145814)", "reagent no.": 2, "total luciferase, z-score": 0.00524, "outcome": "inactive"}
{"Target gene": "PGPEP1L (GeneID 145814)", "reagent no.": 3, "total luciferase, z-score": -0.161, "outcome": "inactive"}
{"Target gene": "ZMYND12 (GeneID 84217)", "reagent no.": 1, "total luciferase, z-score": 0.761, "outcome": "inactive"}
{"Target gene": "ZMYND12 (GeneID 84217)", "reagent no.": 2, "total luciferase, z-score": -2.41, "outcome": "inactive"}
{"Target gene": "ZMYND12 (GeneID 84217)", "reagent no.": 3, "total luciferase, z-score": 1.01, "outcome": "inactive"}
{"Target gene": "APOE (GeneID 348)", "reagent no.": 1, "total luciferase, z-score": 0.142, "outcome": "inactive"}
{"Target gene": "APOE (GeneID 348)", "reagent no.": 2, "total luciferase, z-score": -1.18, "outcome": "inactive"}
{"Target gene": "APOE (GeneID 348)", "reagent no.": 3, "total luciferase, z-score": 0.449, "outcome": "inactive"}
